The values below come from PubChem BioAssay AID493014 (National Center for Advancing Translational Sciences (NCATS), 2011).

A short description of the assay: qHTS Assay to Find Inhibitors of Chronic Active B-Cell Receptor Signaling. The conditions noted are these: ABC-DLBCL IkBa-CBG/CBR reporter, luminescence ratio (green luciferase fused to IkBa over red control in TMD8 lymphoma cells), 4 h. Summed up: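 Concentration-response series (up to 46 uM) were applied to TMD8 dual-reporter cells for 4 h at 37C with doxycycline. Green/red ratio, after filter-overlap correction, defined %Activity; red signal alone was normalised to basal cells and zero luminescence.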
(In general: Quantitative high-throughput screening tests each substance at several concentrations.)

Setting [1] is: measured here: CBR red luminescence, cell number.
The mark [2] stands for this setting: measured here: IkBa-CBG green luminescence.

Some of the results follow. Further columns of the screen follow, without active or inactive calls. The list favours compounds with an active or inconclusive main result. Words in brackets tell the shape of the fitted curve; partial curves, single points and poor fits give uncertain potencies.

Regarding `COCCNC(=O)C(OC(=O)C1=Cc2ccccc2OC1)C(C)C` (centres undefined), the AC50 under setting [1] is 3.55 µM [rising, partial curve, poor fit].
Same read-out and setting: the figure for `CCOC(=O)c1sc(NC(=O)Cc2ccccc2OC)nc1C` is 8.91 µM [falling, partial curve]; for `O=C(N/N=C/c1ccc(N2CCOCC2)cc1)c1ccccc1NS(=O)(=O)c1cccs1` it is 10 µM [falling, partial curve, poor fit]; for `Cn1nc(-c2ccccn2)nc2c(=O)n(C)c(=O)nc1-2` it is 6.31 µM [falling, full curve, poor fit].
On the same count and under the same terms, the figure for `COC(=O)CSc1nc(SCc2ccccc2Cl)nc2c1CCCC2` is 4.11 µM [falling, full curve].
The same measure, in the same setting: the figure for `CNC(=O)c1cc(S(=O)(=O)Nc2ccc(C)cc2C)ccc1C` is 15.8 µM [rising, single point]; for `Cc1ccc(NC(=O)C2(NC(=O)c3cccc(N4C(=O)CSC4c4ccccc4)c3)CCCCC2)cc1` (centres undefined) it is 11.2 µM [falling, partial curve, poor fit]; for `COC(=O)C1=C(C(=O)OC)[C@@H]2N(Cc3ccccc3)c3ccccc3[C@@]23C[C@@H](C(=O)OC)N(C(=O)c2cccs2)C3=N1` it is 35.5 µM [falling, single point].
Regarding `C=CCOc1ccc(-c2n[nH]c(=S)o2)cc1`, the AC50 under setting [1] is 3.16 µM [rising, single point].
On the same count and under the same terms, for `Cc1ccc(NC(=O)C(=O)NN)cc1` the value was 12.6 µM [falling, single point].
The same measure, in the same setting: for `O=C(Nc1nnc(-c2ccc(Cl)cc2)o1)c1ccccc1Br` the value was 14.6 µM [falling, partial curve, poor fit]; for `O=C(Cn1c(SCC(=O)NC2CCCC2)nnc1-c1ccncc1)Nc1ccc2c(c1)OCO2`, 5.62 µM [rising, full curve, poor fit]; for `CC1CN(Cc2nc3c(c(=O)n(C)c(=O)n3C)n2Cc2ccccc2)CC(C)O1` (centres undefined), 25.9 µM [falling, partial curve, poor fit].
For the compound `Cc1cccc(C(=O)NCCNC(=O)c2cnccn2)c1`, the AC50 under setting [1] was 0.112 µM [falling, full curve, poor fit].
Same read-out and setting: for `CCOc1ccc(-c2nc(C)c(C(C)=O)n2O)cc1` the value was 3.26 µM [falling, full curve].
Still for that read-out and setting: for `Cc1nc2nc(CCc3ccccc3)nn2c(C)c1Cl` the value was 17.8 µM [falling, single point]; for `Cc1ccc(C)c(N(CC(=O)NCc2ccc3c(c2)OCO3)C(=O)CCC(=O)Nc2ccccn2)c1`, 35.5 µM [falling, single point]; for `O=C(Nc1cccnc1Cl)c1cc2c(s1)-c1ccccc1OC2`, 6.31 µM [falling, partial curve].
On to `S=C1Cc2ccccc2N1`, for which the AC50 was 11.2 µM [falling, partial curve] under setting [1] and 14.1 µM [rising, partial curve, poor fit] under setting [2].
As to `COc1ccc(C2=NN(C(=O)c3ccccc3C(=O)O)C(c3ccccc3O)C2)cc1` (centres undefined), the AC50 under setting [1] was 14.1 µM [falling, single point].
On the same count and under the same terms, for `CC(C)C(=O)OCC(=O)Nc1ccc2c(c1)CCC2` the value was 10.3 µM [rising, single point]; for `S=c1nc(COc2ccccc2)[nH]c2ccccc12`, 35.5 µM [falling, single point].
For the compound `Cc1ccc(-c2cc(N)n(-c3ccc(C)cc3)n2)cc1`, the AC50 under setting [1] is 0.708 µM [falling, full curve, poor fit].
The same measure, in the same setting: for `CCC1(CC)NC(=O)N(CC(=O)OCC(=O)NC(=O)c2ccc(Cl)cc2)C1=O` the value was 3.98 µM [rising, partial curve, poor fit].
The same measure, in the same setting: for `CC(=O)c1sc(NC(=O)CCS(=O)(=O)c2ccc(C)cc2)nc1C` the value was 6.51 µM [falling, partial curve].
On the same count and under the same terms, for `O=C(CCCc1c[nH]c2ccccc12)N1CCOCC1` the value was 15.8 µM [falling, single point]; for `COc1cc(C)ccc1OCCOCCOc1ccccc1[N+](=O)[O-]`, 11.6 µM [rising, partial curve].
Consider `CC(/C=N/NC(=O)c1cccc(F)c1)=C\c1ccccc1`, for which, under setting [1], the concentration at half-maximal activity (AC50) was 15.8 µM [falling, partial curve, poor fit].
On the same count and under the same terms, for `Cc1ccc(S(=O)(=O)N(C)CC(O)Cn2c3ccccc3c3ccccc32)cc1` (centres undefined) the value was 29.1 µM [falling, single point]; for `N#Cc1nc(-c2ccc(OCc3ccccc3)cc2)oc1NCCCn1ccnc1`, 5.62 µM [falling, single point].
In the case of `CC1CCc2sc(C(=O)NNC(=S)NC3CC3)cc2C1` (centres undefined), under setting [1], the AC50 is 0.447 µM [rising, full curve, poor fit].
Same read-out and setting: the figure for `COC(=O)c1ccc(C2C(C(=O)c3ccc(C)o3)=C(O)C(=O)N2c2cc(C)on2)cc1` (centres undefined) is 6.31 µM [rising, single point]; for `O=C(NCCC1CCCCN1S(=O)(=O)c1ccccc1)C(=O)Nc1ccc(F)cc1F` (centres undefined) it is 16.4 µM [falling, partial curve, poor fit].
Still for that read-out and setting: the figure for `COc1ccccc1OCCNC(=O)c1cccs1` is 35.5 µM [falling, single point]; for `C#CCNC(=O)C1=C[C@@H](C2CCCCC2)C[C@@H](OCCCCO)O1` it is 11.2 µM [rising, partial curve, poor fit].
Turning to `Cc1csc(NC(=O)CCn2c(=O)sc3ccccc32)n1`, the AC50 under setting [1] was 0.326 µM [falling, full curve].
Same read-out and setting: for `COc1ccccc1/C=C/C=N/NC(=O)c1ccc2nc[nH]c2c1` the value was 2.51 µM [falling, full curve]; for `Cc1ccc(S(=O)(=O)N2CCN(c3nc(C(C)C)c4c(c3C#N)CC(C)(C)OC4)CC2)cc1`, 29.1 µM [rising, single point].
On the same count and under the same terms, for `CN1C(=O)C(CC(=O)Nc2ccc(F)cc2)N(Cc2cccs2)C1=S` (centres undefined) the value was 35.5 µM [falling, single point].
`NNC(=S)Nc1ccc(Cl)cc1`: the AC50 is 11.2 µM [rising, partial curve, poor fit] under setting [1] and 35.5 µM [falling, partial curve, poor fit] under setting [2].
For `COc1ccc(NC(=O)CN(c2cc(C)cc(C)c2)S(=O)(=O)c2c(C)n[nH]c2C)cc1`, the AC50 under setting [1] was 7.31 µM [falling, partial curve] and the AC50 under setting [2] is 1.03 µM [rising, partial curve, poor fit].

For orientation: AC50 means the concentration giving half of the maximal activity seen.
